This is one part of the list.

Amino acid sequences for entries named in this document (tags omitted). A change or cut given only in a name is not applied to a line headed by its entry.
UniProt Q5SNV9: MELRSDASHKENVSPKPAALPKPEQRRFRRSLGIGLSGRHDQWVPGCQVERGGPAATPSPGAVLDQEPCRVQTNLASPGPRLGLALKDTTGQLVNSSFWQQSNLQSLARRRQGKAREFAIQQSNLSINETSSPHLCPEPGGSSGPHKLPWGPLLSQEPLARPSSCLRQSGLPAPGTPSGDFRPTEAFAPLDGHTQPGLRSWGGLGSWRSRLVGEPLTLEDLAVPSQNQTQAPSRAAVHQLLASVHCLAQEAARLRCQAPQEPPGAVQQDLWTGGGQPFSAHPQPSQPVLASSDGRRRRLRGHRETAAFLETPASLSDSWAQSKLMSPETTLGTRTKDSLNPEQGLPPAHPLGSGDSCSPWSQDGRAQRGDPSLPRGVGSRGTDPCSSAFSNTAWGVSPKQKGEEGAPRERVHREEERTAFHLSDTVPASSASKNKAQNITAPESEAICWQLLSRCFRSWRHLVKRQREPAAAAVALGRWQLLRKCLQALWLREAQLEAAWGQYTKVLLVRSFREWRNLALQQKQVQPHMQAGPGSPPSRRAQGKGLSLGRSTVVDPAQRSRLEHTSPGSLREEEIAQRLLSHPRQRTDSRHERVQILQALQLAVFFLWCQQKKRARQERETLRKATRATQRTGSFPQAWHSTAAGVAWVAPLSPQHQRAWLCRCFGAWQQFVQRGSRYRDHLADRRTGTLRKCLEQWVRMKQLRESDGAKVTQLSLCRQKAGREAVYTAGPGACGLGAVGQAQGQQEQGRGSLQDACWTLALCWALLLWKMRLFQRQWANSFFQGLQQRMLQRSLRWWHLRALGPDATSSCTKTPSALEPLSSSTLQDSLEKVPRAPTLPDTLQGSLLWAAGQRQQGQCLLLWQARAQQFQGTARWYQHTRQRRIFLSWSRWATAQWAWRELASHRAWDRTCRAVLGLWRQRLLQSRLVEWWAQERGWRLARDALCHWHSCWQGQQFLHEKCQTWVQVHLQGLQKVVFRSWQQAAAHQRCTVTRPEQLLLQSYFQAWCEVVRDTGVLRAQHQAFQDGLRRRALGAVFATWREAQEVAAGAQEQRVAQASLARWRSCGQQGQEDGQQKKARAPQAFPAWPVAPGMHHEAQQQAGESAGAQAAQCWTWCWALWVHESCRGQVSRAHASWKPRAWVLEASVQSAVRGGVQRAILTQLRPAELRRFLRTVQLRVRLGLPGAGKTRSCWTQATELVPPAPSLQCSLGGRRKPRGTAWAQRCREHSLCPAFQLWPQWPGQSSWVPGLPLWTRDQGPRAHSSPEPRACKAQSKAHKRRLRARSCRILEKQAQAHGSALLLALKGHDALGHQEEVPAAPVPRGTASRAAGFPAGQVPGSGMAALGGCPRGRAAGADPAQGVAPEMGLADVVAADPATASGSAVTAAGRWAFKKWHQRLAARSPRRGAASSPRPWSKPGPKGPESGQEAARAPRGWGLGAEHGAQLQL
UniProt Q96MD7: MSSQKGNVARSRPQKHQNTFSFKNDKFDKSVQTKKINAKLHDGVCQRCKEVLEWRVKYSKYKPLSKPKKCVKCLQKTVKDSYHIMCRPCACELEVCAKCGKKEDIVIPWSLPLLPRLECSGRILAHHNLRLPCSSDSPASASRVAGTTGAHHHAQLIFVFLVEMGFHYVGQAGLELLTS
UniProt P04003: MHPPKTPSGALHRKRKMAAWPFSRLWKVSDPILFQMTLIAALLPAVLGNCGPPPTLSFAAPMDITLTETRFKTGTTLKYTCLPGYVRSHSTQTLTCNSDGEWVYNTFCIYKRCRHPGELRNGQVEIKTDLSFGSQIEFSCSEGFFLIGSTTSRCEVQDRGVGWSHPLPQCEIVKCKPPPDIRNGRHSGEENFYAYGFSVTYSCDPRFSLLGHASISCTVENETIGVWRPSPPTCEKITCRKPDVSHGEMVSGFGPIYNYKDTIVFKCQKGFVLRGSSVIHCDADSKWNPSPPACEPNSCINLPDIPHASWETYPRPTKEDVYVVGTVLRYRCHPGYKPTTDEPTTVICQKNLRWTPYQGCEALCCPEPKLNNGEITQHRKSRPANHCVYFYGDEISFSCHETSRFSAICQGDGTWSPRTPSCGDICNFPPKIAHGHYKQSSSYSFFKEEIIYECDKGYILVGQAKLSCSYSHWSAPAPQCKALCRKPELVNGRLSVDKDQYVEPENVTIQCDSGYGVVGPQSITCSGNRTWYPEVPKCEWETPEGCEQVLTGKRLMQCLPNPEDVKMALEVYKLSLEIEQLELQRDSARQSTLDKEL
UniProt Q86VG3: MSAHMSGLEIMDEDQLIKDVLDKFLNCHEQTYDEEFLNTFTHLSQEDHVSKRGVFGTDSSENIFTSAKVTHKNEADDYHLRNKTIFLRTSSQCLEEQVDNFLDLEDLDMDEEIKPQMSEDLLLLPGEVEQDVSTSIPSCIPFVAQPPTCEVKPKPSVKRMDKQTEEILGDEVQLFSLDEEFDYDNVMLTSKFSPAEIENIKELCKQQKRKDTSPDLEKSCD
UniProt Q9Y297: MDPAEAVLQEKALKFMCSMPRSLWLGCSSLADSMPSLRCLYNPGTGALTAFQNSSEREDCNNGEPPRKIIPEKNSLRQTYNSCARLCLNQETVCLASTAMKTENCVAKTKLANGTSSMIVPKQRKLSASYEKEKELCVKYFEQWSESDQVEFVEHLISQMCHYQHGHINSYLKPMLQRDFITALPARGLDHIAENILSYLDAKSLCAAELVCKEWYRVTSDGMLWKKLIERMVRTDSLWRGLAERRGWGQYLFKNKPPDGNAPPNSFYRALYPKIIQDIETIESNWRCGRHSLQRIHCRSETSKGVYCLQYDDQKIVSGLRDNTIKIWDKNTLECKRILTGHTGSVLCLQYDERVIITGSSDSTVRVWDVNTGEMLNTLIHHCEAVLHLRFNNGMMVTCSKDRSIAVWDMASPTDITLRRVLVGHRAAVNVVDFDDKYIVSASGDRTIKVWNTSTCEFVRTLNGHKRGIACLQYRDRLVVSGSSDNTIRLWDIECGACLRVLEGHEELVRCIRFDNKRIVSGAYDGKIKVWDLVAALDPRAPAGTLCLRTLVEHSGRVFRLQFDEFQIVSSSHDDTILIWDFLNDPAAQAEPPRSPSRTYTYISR
UniProt O75808: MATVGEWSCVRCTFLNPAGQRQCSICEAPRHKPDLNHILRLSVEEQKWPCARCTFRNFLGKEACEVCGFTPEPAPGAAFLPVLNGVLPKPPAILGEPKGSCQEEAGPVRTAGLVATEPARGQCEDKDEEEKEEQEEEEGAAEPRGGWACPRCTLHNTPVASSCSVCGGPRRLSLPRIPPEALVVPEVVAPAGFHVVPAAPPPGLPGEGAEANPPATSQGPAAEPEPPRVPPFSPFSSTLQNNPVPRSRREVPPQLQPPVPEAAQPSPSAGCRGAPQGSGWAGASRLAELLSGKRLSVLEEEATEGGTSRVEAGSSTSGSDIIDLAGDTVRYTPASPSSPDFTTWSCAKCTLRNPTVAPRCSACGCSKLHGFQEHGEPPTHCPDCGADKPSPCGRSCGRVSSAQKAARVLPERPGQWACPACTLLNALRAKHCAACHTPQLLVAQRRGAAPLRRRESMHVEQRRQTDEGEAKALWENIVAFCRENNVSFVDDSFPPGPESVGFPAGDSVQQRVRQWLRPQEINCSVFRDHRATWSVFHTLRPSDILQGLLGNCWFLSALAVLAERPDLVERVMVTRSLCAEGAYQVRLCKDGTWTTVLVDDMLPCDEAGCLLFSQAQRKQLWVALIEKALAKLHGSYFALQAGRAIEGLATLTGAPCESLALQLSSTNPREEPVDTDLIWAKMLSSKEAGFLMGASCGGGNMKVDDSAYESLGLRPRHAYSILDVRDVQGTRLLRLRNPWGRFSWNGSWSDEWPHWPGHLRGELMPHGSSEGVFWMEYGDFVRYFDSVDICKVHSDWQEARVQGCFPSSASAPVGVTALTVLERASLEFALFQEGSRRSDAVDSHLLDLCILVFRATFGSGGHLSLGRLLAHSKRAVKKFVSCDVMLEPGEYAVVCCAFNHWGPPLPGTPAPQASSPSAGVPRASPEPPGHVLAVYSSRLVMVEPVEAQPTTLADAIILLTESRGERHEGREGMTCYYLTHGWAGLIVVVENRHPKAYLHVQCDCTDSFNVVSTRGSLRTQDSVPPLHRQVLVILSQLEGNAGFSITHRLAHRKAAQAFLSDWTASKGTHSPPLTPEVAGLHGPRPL
UniProt Q3KRA6: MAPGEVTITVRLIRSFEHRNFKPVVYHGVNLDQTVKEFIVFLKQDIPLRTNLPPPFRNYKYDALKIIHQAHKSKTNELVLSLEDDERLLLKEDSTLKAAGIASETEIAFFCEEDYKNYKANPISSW
UniProt Q9BRD0: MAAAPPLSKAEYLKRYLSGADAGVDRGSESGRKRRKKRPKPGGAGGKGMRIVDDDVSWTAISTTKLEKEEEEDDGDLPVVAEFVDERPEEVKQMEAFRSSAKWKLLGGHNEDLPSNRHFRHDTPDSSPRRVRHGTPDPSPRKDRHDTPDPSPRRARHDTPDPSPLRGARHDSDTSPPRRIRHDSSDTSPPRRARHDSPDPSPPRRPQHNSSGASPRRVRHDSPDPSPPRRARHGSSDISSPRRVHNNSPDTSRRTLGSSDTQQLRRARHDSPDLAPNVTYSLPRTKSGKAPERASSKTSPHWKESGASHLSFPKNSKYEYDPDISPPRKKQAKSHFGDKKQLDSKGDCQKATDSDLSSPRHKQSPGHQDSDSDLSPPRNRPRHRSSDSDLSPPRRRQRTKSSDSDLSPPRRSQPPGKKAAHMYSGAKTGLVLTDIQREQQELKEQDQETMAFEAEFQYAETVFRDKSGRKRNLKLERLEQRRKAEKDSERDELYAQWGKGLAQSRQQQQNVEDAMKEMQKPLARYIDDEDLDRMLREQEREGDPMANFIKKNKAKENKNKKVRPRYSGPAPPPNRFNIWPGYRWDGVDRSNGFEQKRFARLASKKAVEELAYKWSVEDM
UniProt P0DMB2: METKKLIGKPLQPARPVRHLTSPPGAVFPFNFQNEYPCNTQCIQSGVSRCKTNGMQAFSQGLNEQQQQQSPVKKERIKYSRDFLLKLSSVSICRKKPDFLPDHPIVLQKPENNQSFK
UniProt Q5SQH8: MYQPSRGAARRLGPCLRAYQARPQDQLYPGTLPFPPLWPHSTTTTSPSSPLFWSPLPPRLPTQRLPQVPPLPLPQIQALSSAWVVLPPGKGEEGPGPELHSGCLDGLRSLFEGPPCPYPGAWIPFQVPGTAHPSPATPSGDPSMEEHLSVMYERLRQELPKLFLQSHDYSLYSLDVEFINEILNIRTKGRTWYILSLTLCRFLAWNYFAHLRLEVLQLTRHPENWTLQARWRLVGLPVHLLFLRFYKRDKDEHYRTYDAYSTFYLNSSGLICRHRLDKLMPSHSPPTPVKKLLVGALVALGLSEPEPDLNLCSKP
UniProt Q9H3J6: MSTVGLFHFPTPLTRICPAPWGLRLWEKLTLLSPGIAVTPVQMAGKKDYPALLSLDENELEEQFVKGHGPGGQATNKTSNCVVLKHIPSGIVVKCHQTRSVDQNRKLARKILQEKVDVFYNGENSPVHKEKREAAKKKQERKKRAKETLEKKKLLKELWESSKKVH

Compound in the assay: CCn1c(C(=O)N(C2CC2)C2CC2)cc2c3c(ncn3C)c(Nc3cc(C)n(C)n3)nc21
In words: log2 fold change, soluble protein after heating vs DMSO (PISA); higher = thermal stabilisation; K562 cells, 10 uM, 30 min; active = over 0.2 and 3.5 SD of the protein, either way, in both replicates (recomputed). In a few lines: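 For each measurement, 10 μM compound was applied for 30 min to K562 cells at 2×10^6 cells/mL. Aliquots were heated for 3 min across 48°C-58°C, pooled, and extracted in PBS with 0.5% NP-40 at 4°C; the supernatant after 21,000xg for 90 min was soluble protein. This was quantified by TMTpro 16plex LC-MS/MS with channel sums equalised, and thermal stability was reported relative to control samples from duplicates, on a log2 fold-change scale.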
As for C1orf167 isoform 2 (UniProt Q5SNV9), the log2 fold change is inactive: 0.029.

For CA2 (UniProt P00918), the log2 fold change is inactive: -0.122. Next, C9orf85 isoform 1 (UniProt Q96MD7): inactive: 0.019. Take C4BPA (UniProt P04003): the log2 fold change is inactive: 0.39. For C11orf74 (UniProt Q86VG3) the value was inactive: -0.072. For the target BTRC (UniProt Q9Y297), the log2 fold change was inactive: -0.007. In the case of CAPN15 (UniProt O75808), the log2 fold change is inactive: 0.009. Take CAPN1 (UniProt E9PLX0): the log2 fold change was inactive: -0.127. For C2orf76 (UniProt Q3KRA6), the log2 fold change is inactive: 0.053.

As to BUD13 (UniProt Q9BRD0), the log2 fold change was inactive: -0.024. Consider C8orf88 (UniProt P0DMB2), for which the log2 fold change was inactive: -0.061.

For the target C6orf136 isoform 4 (UniProt Q5SQH8), the log2 fold change was inactive: -0.06. With C12orf65 (UniProt Q9H3J6), the log2 fold change was inactive: 0.032.

The values above are taken from the supplement of paper PMC10849652.
